# In PubChem BioAssay AID743255 (National Center for Advancing Translational Sciences (NCATS), 2014):
# Sequences of proteins named here, by UniProt entry; tags and fusion partners are left off. A change or cut given only in a name is not applied to a line headed by its entry.
# UniProt O94782: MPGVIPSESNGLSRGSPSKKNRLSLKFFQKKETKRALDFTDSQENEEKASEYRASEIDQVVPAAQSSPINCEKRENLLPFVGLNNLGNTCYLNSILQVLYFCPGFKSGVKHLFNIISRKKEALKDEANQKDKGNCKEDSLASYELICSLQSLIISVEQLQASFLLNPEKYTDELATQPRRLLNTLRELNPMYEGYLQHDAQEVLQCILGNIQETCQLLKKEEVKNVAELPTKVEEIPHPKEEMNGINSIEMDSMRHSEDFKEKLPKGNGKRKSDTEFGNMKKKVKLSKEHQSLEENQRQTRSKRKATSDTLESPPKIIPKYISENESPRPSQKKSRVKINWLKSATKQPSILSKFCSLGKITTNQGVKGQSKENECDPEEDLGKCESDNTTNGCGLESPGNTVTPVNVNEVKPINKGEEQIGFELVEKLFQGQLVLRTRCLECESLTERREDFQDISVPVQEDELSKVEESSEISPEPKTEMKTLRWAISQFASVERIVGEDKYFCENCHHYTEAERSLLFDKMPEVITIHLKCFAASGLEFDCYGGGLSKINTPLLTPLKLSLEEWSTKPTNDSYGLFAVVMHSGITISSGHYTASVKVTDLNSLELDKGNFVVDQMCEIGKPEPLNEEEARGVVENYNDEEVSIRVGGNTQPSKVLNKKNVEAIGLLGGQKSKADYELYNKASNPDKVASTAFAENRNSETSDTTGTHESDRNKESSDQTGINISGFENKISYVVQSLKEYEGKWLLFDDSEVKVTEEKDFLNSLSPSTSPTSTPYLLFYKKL
# Out of some 390,000 compounds screened, about 910 (0.23%) were called active. Inconclusive means that the source gave no clear call. Such entries were picked first, then a sample of the others. Calls come from the whole dose curve; as a rule, active = well fitted inhibition curve with a large enough effect; inconclusive = small, poorly fitted or top-dose-only effect; inactive = no such curve, though single readings can be large or run the other way. Potencies of inconclusive entries are doubtful fits and often do not repeat.
# Target: Ubiquitin carboxyl-terminal hydrolase 1 (Homo sapiens) (UniProt O94782)
# Experiment: Inhibitors of USP1/UAF1: Primary Screen; note: nearly all actives have a fitted effect of over 60% in size
# Details: recombinant USP1/UAF1, Ub-Rhodamine cleavage fluorescence; series mostly up to 57.1 µM
# Procedure, shortened: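 High-throughput fluorogenic screen: 1nM USP1/UAF1 complex, Ub-Rho substrate 150nM final, 50mM HEPES pH 7.8 with 0.5mM EDTA, 0.1 mg/ml BSA, 1mM TCEP and 0.01% Tween-20.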
# Potency is the fitted concentration of half-maximal effect.
row,SMILES,Potency
1,CCc1nc2ccc(C(=O)NCc3ccc(N(C)C)cc3)cc2nc1CC,"inconclusive: 178 µM [inhibitor, partial curve, poor fit]"
2,COc1ccc(NC(=O)c2ccco2)cc1NC(=O)c1ccc(C)c(C)c1,"inconclusive: 0.251 µM [inhibitor, full curve, poor fit]"
3,O=C(Cn1cc(SCc2ccc(Br)cc2)c2ccccc21)N1CCCCC1,inactive
4,COc1ccc(-c2cn3cccnc3n2)cc1NC(=O)C1CCCC1,inactive
5,CCOc1ccccc1C(=O)Nc1ccccc1-c1ccccc1,"inconclusive: 39.8 µM [inhibitor, partial curve]"
6,Cc1nnc(SCC(=O)Nc2cccc(S(=O)(=O)N(C)c3ccccc3)c2)s1,inactive
7,COc1ccc(CCN(Cc2ccccn2)C(=S)Nc2ccccc2Cl)cc1OC,"inconclusive: 0.398 µM [inhibitor, full curve, poor fit]"
8,CCOc1ccc(Br)cc1C1=CC(=O)C[C@H](c2ccc(OC)cc2)C1,"inconclusive: 44.7 µM [inhibitor, partial curve, poor fit]"
9,O=S(=O)(c1cccc(-c2csc(N/N=C/c3ccco3)n2)c1)N1CCOCC1,inactive
10,COc1ccc2sc(-c3ccc(N(C)C)cc3)c(-c3ccc4cc[nH]c4c3)c2c1,"inconclusive: 56.2 µM [inhibitor, partial curve, poor fit]"
11,CC(=O)n1cc([C@H]2C=C(C(=O)N3CCN(Cc4ccc5c(c4)OCO5)CC3)O[C@@H](OCc3ccc(CO)cc3)C2)c2ccccc21,"inconclusive: 79.4 µM [inhibitor, partial curve, poor fit]"
12,Cc1ccc(NC(=S)NC2CC3CCC(C2)N3Cc2ccco2)c(C)c1 (stereo not given),"inconclusive: 0.398 µM [inhibitor, full curve, poor fit]"
13,O=C(NNC(=O)C1COc2ccccc2O1)c1ccccc1O (stereo not given),"inconclusive: 0.282 µM [inhibitor, full curve]"
14,CC(OC(=O)Cn1cnc2c1c(=O)n(C)c(=O)n2C)C(=O)NC(C)c1ccc(Cl)cc1Cl (stereo not given),"inconclusive: 44.7 µM [inhibitor, partial curve, poor fit]"
15,O=C(Nc1ccn(CCCN2CCN(Cc3ccc(F)cc3)CC2)c(=O)n1)OCc1ccccc1,inactive
16,CC1(C)CC(O)CC(C)(C)N1CC(O)COCc1ccccc1 (stereo not given),inactive
17,Cc1cn2c(N)c(C=C3C=C(Cl)C(=O)C(Cl)=C3)c(=O)nc2s1,"inconclusive: 15.8 µM [inhibitor, partial curve]"
18,c1ccc(CCNc2ccc3nncn3n2)cc1,"inconclusive: 39.8 µM [inhibitor, partial curve, poor fit]"
19,CCOc1ccc(-n2nc3c(SCCN4CCCC4)nnc(C)c3c2C)cc1,"inconclusive: 20 µM [inhibitor, partial curve, poor fit]"
20,CCc1ccc(NC(=O)c2cnc(N3CCN(c4ccccn4)CC3)c3ccccc23)cc1,"inconclusive: 44.7 µM [inhibitor, partial curve, poor fit]"
21,Cc1ccc(Cc2c(-c3ccc(F)cc3)nc3ccc(Cl)cn23)cc1,"inconclusive: 39.8 µM [inhibitor, partial curve]"
22,CCc1nc2oc3ccccc3c(=O)c2c(=O)n1-c1ccc(C)cc1,inactive

# Another view of some results above.
row | SMILES | Potency
9 | O=S(=O)(c1cccc(-c2csc(N/N=C/c3ccco3)n2)c1)N1CCOCC1 | inactive
10 | COc1ccc2sc(-c3ccc(N(C)C)cc3)c(-c3ccc4cc[nH]c4c3)c2c1 | inconclusive: 56.2 µM [inhibitor, partial curve, poor fit]

# The list goes on:

row,SMILES,Potency
1,O=C(c1ccc(N2CCCCS2(=O)=O)cc1)N1CCN(c2ccc(N3CCOCC3)nn2)CC1,inactive
2,CC(C)C(NS(=O)(=O)c1ccc2c3c(cccc13)C(=O)N2)C(=O)O (stereo not given),"inconclusive: 3.55 µM [inhibitor, full curve, poor fit]"
3,CCOC(=O)c1nn(-c2ccccc2C)c2nc(CC(C)C)c(C#N)c(=O)n12,"inconclusive: 44.7 µM [inhibitor, partial curve]"
4,CC(CN)(NS(=O)(=O)c1ccccc1)c1ccccc1 (stereo not given),"inconclusive: 6.31 µM [inhibitor, single point]"
5,COC1=CC(=Cc2c(N)n3nc(CC(=O)N4CCCCC4)sc3nc2=O)C=C(OC)C1=O,"inconclusive: 15.8 µM [inhibitor, partial curve]"
6,Clc1cccc(CN2CCC3CC2c2cc(N4CCCCC4)ccc23)c1 (stereo not given),inactive
7,CCOC(=O)CCn1c(=O)c2cccn2c2cccnc21,inactive
8,CCOCCCNC1=C(Cl)C(=O)c2ccccc2C1=O,"inconclusive: 17.8 µM [inhibitor, partial curve]"
9,CC1=NN(c2ccc(C)c(C)c2)C(=O)/C1=C\C=C\c1ccc([N+](=O)[O-])o1,inactive
10,CCCc1ccc(S(=O)(=O)N2CCN(C(=O)c3cc(C)on3)CC2)cc1,"inconclusive: 0.251 µM [inhibitor, full curve, poor fit]"
11,CC(C)N1CC2(CC(c3ccc(Cl)cc3Cl)=NO2)CN1C(=O)c1ccc(C(C)(C)C)cc1 (stereo not given),"inconclusive: 0.316 µM [inhibitor, full curve, poor fit]"
12,CCOC(=O)c1ccc(NC(=O)CC2Nc3cccc4cccc(c34)NC2=O)cc1 (stereo not given),"inconclusive: 5.62 µM [inhibitor, full curve, poor fit]"
13,NC(=O)CC(NC(=O)Cc1ccc(Br)cc1)c1ccc(NCc2ccccn2)c([N+](=O)[O-])c1 (stereo not given),"inconclusive: 39.8 µM [inhibitor, single point]"
14,Cc1cc(C=C2C(=O)c3ccccc3C2=O)c(C)n1C,inactive
15,CCCNC(=O)NC(=O)CSc1cccc(C(F)(F)F)c1,"inconclusive: 0.0891 µM [inhibitor, full curve, poor fit]"
16,CCc1ccc(CNC(=O)c2ccc(CS(=O)c3ccc(Br)cc3)o2)cc1 (stereo not given),"inconclusive: 100 µM [inhibitor, partial curve, poor fit]"
17,O=C(OCc1ccccn1)c1ccc(COc2ccc3ccccc3c2)o1,"inconclusive: 56.2 µM [inhibitor, partial curve, poor fit]"
18,COc1ccccc1NCC(=O)NNC(C)C(=O)Nc1cccc(Cl)c1 (stereo not given),inactive
19,COc1ccc(NC(=O)C2=NN(C3CCS(=O)(=O)C3)C(=O)CC2)cn1 (stereo not given),inactive
20,CCOc1ccc(S(=O)(=O)NCCc2csc3nc(-c4ccc(OC)c(OC)c4)nn23)cc1,"inconclusive: 11.2 µM [inhibitor, partial curve, poor fit]"
21,O=C(CNC(=O)c1cccs1)NCCN1CCN(Cc2ccccc2)CC1,"inconclusive: 3.16 µM [inhibitor, partial curve]"
22,CCCOc1ccc(Cc2c(COCC)[nH]c(=S)[nH]c2=O)cc1,"inconclusive: 31.6 µM [inhibitor, partial curve, poor fit]"

# 2 of the compounds above, bar-delimited.
row | SMILES | Potency
3 | CCOC(=O)c1nn(-c2ccccc2C)c2nc(CC(C)C)c(C#N)c(=O)n12 | inconclusive: 44.7 µM [inhibitor, partial curve]
4 | CC(CN)(NS(=O)(=O)c1ccccc1)c1ccccc1 (stereo not given) | inconclusive: 6.31 µM [inhibitor, single point]

# Going on with the list:

row,SMILES,Potency
1,CCOCCc1nn2c(=O)cc(COC(=O)COc3ccc(C)c(C)c3)nc2s1,inactive
2,CCOc1ccccc1NC(=O)Nc1ccc2nc(N3CCN(C)CC3)cc(C)c2c1,"inconclusive: 0.794 µM [inhibitor, full curve, poor fit]"
3,CCN(CC)c1ccc(NC(=O)CN(C)S(=O)(=O)c2cccc3nsnc23)c(C)c1,"inconclusive: 35.5 µM [inhibitor, partial curve]"
4,CCn1c(SCC(=O)Nc2ccc3c(c2)OCCO3)nnc1-c1cccs1,inactive
5,Cc1c(NC(=O)c2cccc(S(=O)(=O)N3CCOCC3)c2)c(=O)n(-c2ccccc2)n1C,"inconclusive: 25.1 µM [inhibitor, single point]"
6,O=C(c1ccc(=O)oc1)N1CCC(C(O)(c2ccccc2)c2ccccc2)CC1,"inconclusive: 7.94 µM [inhibitor, partial curve, poor fit]"
7,CC(C)CCOc1ccc(Cn2c(=O)sc3ccccc32)cc1,"inconclusive: 28.2 µM [inhibitor, single point]"
8,Cc1cccc(NC(=O)COc2ccc(/C=C\c3[nH]c(=O)[nH]c(=O)c3[N+](=O)[O-])cc2)c1,"inconclusive: 50.1 µM [inhibitor, partial curve, poor fit]"
9,O=C(O)C1Sc2[nH]c(=O)sc2C2c3ccc(O)cc3OC(=O)C12 (stereo not given),"inconclusive: 44.7 µM [inhibitor, partial curve]"
10,CCOC(=O)c1[nH]c2ccccc2c1NC(=S)Nc1cc(C)ccc1C,"inconclusive: 7.94 µM [inhibitor, partial curve]"
11,Cc1cc(C)n(C(C)CC(=O)Nc2ccc(C)c(N(C)C)c2)n1 (stereo not given),inactive
12,Cc1nnc(N2CCC(C(=O)NCCC(C)C)CC2)c2nn(-c3ccc(Cl)cc3)c(C)c12,"inconclusive: 35.5 µM [inhibitor, single point]"
13,O=C(NNS(=O)(=O)c1ccc(Cl)cc1)c1cc(-c2ccccc2)nc2ccccc12,"inconclusive: 44.7 µM [inhibitor, partial curve, poor fit]"
14,Cc1ccc(/C=N/n2cc(-c3ccccc3)[nH]c2=S)s1,inactive
15,Cc1cc2ccccc2n1CCNC(=O)c1ccc(Br)cc1,"inconclusive: 44.7 µM [inhibitor, partial curve, poor fit]"
16,Cc1ccc(CN2CCNC(=O)C2CC(=O)NCCCn2nnc3ccccc32)cc1 (stereo not given),"inconclusive: 50.1 µM [inhibitor, partial curve]"
17,CC(C)Oc1ccc(C(=O)Nc2c(C(=O)Nc3cccc(F)c3)oc3ccccc23)cc1,"inconclusive: 11.2 µM [inhibitor, partial curve, poor fit]"
18,CNC[C@H](CC1CCCCC1)NC[C@H](CO)NCC1(c2ccccc2)CC1,inactive
19,C=CCNC(=S)NCc1ccccc1,inactive
20,COc1ccc(OC)c(/C=C2\Oc3cc(OCC(=O)N4CCC(C(=O)O)CC4)ccc3C2=O)c1,"inconclusive: 10 µM [inhibitor, partial curve]"
21,CN(CCOc1cccc2ccccc12)Cc1ccccc1,"inconclusive: 44.7 µM [inhibitor, partial curve]"
